According to PMC13178980:
No constants are given. Whether binding was seen depends on the method and setting. In cells and extracts the contact can be indirect. Some binding calls cover weakened binding; strength is not graded here.

Chains of the proteins cited; added tags and fusions are not shown. Lines headed by an entry give the natural chain unless they say otherwise; changes in a name come on top. A line that says so, or that is headed by a name, gives the form on record, which may keep a tag or linker. Residues count along the entry.
UniProt Q9GZS1: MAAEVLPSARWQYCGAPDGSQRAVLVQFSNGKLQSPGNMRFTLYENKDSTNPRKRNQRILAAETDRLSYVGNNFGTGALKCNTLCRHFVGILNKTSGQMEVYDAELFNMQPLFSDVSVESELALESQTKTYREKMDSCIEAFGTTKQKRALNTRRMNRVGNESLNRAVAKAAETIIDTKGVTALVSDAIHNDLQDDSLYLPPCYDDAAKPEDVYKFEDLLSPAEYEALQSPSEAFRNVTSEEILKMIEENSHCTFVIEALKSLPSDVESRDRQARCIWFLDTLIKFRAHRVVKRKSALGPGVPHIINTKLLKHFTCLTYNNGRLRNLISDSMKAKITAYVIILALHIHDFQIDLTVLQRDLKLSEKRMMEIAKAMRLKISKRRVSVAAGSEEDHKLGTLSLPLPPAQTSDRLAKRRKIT
UniProt O15446: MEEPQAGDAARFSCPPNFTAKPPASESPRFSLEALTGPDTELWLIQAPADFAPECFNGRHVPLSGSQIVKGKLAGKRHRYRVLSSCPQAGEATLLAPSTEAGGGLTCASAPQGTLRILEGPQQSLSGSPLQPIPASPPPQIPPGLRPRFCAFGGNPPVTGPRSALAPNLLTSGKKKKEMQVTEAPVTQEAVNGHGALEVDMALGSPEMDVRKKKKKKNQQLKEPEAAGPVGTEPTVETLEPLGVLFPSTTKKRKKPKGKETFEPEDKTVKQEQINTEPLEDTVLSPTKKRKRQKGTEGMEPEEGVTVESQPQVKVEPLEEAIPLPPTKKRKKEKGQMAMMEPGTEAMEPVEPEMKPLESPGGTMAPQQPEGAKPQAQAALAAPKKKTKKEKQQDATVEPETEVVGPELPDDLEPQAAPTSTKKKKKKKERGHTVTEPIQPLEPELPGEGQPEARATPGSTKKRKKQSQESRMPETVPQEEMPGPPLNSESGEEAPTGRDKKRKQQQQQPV
UniProt O15047: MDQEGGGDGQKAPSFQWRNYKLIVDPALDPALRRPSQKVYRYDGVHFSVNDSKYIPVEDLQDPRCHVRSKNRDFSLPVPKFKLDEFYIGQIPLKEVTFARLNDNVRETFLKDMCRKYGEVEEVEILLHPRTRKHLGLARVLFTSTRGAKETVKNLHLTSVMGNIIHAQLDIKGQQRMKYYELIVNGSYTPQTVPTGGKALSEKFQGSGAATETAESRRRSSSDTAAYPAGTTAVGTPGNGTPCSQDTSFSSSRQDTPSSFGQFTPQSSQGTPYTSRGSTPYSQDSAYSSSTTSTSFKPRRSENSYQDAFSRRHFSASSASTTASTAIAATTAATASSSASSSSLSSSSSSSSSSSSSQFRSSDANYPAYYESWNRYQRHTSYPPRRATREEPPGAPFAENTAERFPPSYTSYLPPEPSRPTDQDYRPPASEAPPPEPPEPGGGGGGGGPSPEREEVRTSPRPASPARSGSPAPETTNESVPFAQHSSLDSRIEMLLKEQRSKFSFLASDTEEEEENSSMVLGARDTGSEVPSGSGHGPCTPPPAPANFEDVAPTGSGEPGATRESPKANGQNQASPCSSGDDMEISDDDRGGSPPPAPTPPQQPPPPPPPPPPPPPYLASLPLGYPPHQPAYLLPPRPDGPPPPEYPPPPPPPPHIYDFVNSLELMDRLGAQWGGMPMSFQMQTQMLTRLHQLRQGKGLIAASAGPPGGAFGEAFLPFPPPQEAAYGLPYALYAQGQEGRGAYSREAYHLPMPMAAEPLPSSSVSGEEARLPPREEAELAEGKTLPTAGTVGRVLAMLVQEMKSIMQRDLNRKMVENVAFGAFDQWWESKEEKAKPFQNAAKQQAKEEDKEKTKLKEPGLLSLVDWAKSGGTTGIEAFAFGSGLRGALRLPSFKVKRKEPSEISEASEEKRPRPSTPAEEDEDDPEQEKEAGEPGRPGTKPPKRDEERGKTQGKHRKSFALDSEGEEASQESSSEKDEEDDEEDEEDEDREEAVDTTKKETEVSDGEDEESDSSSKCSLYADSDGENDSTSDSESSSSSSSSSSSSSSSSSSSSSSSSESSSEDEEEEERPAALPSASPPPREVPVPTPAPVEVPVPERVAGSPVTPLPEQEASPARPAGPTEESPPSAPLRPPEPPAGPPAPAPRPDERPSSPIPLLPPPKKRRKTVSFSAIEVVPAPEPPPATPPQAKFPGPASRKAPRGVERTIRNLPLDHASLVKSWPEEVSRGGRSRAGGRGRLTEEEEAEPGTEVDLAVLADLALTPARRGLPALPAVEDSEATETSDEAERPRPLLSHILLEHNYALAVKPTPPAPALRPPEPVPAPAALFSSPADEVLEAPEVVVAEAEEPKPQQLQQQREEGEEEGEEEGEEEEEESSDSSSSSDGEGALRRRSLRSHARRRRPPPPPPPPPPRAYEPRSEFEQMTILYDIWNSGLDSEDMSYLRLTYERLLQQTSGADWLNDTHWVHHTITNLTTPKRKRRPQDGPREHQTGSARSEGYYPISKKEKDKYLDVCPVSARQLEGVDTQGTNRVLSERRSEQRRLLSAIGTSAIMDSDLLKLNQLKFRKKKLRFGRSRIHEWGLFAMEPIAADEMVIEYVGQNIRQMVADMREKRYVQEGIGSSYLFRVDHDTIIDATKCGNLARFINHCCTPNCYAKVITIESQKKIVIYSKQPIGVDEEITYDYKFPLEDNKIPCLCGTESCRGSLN
SFB-tagged RRM of KMT2F (74-172): residues 74-172 of O15047
UniProt O95602: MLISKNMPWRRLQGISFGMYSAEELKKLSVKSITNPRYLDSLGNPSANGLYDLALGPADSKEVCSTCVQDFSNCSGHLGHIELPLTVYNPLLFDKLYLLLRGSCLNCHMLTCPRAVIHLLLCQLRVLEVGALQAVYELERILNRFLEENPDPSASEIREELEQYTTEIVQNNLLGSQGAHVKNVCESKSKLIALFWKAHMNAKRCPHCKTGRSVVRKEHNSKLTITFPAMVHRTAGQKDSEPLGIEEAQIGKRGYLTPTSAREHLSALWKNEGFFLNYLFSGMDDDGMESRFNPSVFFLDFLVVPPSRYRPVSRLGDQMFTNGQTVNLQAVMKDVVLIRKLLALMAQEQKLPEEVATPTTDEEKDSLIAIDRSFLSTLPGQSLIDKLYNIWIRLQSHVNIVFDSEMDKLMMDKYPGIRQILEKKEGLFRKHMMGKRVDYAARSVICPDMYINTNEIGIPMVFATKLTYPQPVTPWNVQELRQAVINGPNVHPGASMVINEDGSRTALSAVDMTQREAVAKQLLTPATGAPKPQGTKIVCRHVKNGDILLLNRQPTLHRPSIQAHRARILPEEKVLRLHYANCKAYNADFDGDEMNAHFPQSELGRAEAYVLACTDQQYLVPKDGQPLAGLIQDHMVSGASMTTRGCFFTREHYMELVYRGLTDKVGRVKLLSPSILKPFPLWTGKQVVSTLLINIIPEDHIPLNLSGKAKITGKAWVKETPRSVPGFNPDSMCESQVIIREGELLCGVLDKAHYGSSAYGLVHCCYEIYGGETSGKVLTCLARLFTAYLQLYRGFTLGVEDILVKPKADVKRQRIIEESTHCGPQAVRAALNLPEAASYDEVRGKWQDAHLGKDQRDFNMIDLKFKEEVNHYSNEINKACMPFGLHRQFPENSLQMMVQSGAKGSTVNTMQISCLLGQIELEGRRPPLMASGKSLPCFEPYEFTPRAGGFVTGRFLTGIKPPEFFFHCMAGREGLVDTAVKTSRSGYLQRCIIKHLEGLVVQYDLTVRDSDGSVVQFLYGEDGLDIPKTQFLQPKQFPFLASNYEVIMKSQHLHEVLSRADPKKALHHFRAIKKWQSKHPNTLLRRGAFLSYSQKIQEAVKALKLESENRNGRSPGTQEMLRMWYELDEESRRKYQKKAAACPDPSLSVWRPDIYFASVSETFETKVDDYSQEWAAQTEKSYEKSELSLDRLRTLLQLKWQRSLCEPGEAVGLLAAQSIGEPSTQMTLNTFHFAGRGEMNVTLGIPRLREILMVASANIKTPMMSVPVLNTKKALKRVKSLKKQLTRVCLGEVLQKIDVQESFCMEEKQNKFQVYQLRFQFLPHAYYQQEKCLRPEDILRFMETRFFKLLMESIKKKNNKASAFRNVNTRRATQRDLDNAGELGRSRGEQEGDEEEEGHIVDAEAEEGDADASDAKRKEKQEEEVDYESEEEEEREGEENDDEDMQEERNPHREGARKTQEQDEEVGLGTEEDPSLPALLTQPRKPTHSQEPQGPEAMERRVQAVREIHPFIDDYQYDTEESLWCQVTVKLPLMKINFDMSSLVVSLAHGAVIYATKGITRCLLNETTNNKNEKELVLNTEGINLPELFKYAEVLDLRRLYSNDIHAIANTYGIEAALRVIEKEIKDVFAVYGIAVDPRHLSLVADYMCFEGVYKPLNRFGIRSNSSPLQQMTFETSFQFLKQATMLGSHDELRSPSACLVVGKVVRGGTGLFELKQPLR
UniProt Q9NYV6: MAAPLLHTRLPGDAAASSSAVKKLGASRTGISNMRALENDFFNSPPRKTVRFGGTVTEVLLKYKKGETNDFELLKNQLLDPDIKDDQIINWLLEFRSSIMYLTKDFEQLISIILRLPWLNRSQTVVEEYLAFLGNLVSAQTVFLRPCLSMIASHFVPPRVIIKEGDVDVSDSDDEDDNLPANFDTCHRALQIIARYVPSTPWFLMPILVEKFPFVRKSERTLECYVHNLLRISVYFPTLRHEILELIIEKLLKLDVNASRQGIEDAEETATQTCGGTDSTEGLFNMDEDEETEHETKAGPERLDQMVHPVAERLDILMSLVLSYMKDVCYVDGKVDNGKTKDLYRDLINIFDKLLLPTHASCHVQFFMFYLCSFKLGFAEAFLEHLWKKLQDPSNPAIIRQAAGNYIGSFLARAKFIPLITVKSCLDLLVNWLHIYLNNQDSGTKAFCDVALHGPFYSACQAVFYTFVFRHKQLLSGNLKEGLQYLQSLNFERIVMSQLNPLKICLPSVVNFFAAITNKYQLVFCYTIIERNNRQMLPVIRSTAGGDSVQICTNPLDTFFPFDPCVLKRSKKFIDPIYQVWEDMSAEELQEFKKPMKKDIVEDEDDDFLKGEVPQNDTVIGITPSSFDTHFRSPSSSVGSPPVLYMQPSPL

Legend:
GST-RPA49 = GST-RPA49 (UniProt Q9GZS1); experiment: pull-down; purified bead-bound GST-tagged proteins incubated with HeLa or HeLa spinner whole-cell or nuclear extracts for 2-3 hours, washed with IP wash buffer; blots with anti-KMT2A and anti-KMT2F; only the target purified
GST-RPA34 = GST-RPA34 (UniProt O15446); experiment: as above
[1] = biological target: SFB-tagged full-length KMT2F (UniProt O15047); experiment: pull-down; SFB-tagged proteins overexpressed in cells, lysate incubated with S protein beads overnight, washed with IP wash buffer; immunoblot for endogenous RPA194, RRN3 and RPA-49
SFB-tagged KMT2F N1646A = SFB-tagged KMT2F N1646A (UniProt O15047); experiment: as above
[2] = biological target: SFB-tagged RRM of KMT2F (74-172) (UniProt O15047); experiment: as above
[3] = biological target: KMT2F (human (endogenous in HeLa)) (UniProt O15047); experiment: co-IP; endogenous immunoprecipitation from HeLa nuclear extract with antibodies against KMT2A or KMT2F, Protein A beads, IgG as mock; immunoblot
[4] = biological target: KMT2A (human (endogenous in HeLa)) (UniProt Q03164); experiment: as above

Measured: binding

KMT2A (from UniProt Q03164 1-3969)
binds: GST-RPA49 | GST-RPA34

RPA49 (from UniProt Q9GZS1 1-419)
binds: [1] | SFB-tagged KMT2F N1646A | [2]

RPA194 (from UniProt O95602 1-1720)
binds: [1] | SFB-tagged KMT2F N1646A | [2] | [3] | [4]

RRN3 (from UniProt Q9NYV6 1-651)
binds: [1] | SFB-tagged KMT2F N1646A | [2] | [3] | [4]

KMT2F (from UniProt O15047 1-1707)
binds: GST-RPA49 | GST-RPA34
